Some of the results follow. Some of these compounds have results that are not shown, active ones among them.
The compounds below were run on diphosphomevalonate decarboxylase (Streptococcus pneumoniae D39) (assay: diphosphomevalonate decarboxylase activity blockers – biochemical, PK/LDH-coupled NADH fluorescence, primary screen (AID 556;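 note: kinetic rate of NADH fluorescence loss reporting ADP formed by the decarboxylase; 0% = full reaction rate with carrier and 100% = no-substrate background rate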)). Details: purified DPM-DC, measured here: pilot screen trials, at 10 µM, stronger effect = higher value.

Row | SMILES | inhibition [%]
1 | O=C(OC1CN2CCC1CC2)C(CO)(c1ccccc1)c1ccccc1 (stereo unspecified) | 2.5

From PubChem BioAssay AID556 (SRMLSC, 2006)
